PubChem BioAssay AID1259254 – NCATS – 2017
This is one part, drawn at random, of about 59,000 reagents tested. Over the whole deposit, about 1,550 (2.6%) got an active call. 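G2 share is only a proxy for re-replication; each gene was hit by three separate siRNAs, and active genes were retested.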 Raw values vary from plate to plate and are shown uncorrected. Reagents against one gene are numbered here. Not given: the amount of reagent.

- Purpose: 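Gene knock-downs that lead to re-replication, shown by excess G2 DNA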 (primary screen)
- Cell system: human HCT116 colorectal cancer cells
- Reagents: single siRNA against human genes
- Duration: 3 days
- Detection: 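Imaged Hoechst DNA stain sorts each cell into a cycle phase by DNA amount; per plate, G2 fraction set to 0% for non-targeting and 100% for GMNN siRNA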
- Direction: G2 robust z-score and G2 cells, % of GMNN control: higher = more G2 cells, more excess DNA replication; raw share of cells in G2: higher = larger share of cells with G2 DNA content
- Hit rule: 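Active siRNAs have a G2 robust z of 5 or more median absolute deviations over the median, which in these data means about 38% or higher of GMNN control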

| gene symbol | reagent no. | G2 robust z-score | G2 cells, % of GMNN control | raw share of cells in G2 (%) | outcome |
| --- | --- | --- | --- | --- | --- |
| TTC21B | 1 | -0.926 | -3.54 | 2.97 | inactive |
| TTC21B | 2 | 1.67 | 14.7 | 10.7 | inactive |
| TTC21B | 3 | -1 | -4.1 | 1.26 | inactive |
| LMAN2L | 1 | 5.92 | 44.6 | 23 | active |
| LMAN2L | 2 | 1.4 | 12.8 | 9.92 | inactive |
| LMAN2L | 3 | -0.707 | -2.01 | 1.83 | inactive |
| RALGAPB | 1 | 0.763 | 8.33 | 7.63 | inactive |
| RALGAPB | 2 | 0.58 | 7.04 | 7.83 | inactive |
| RALGAPB | 3 | 0.601 | 7.2 | 5.31 | inactive |
| BLTP2 | 1 | 0.0366 | 3.22 | 6.79 | inactive |
| BLTP2 | 2 | 1.22 | 11.6 | 8.78 | inactive |
| BLTP2 | 3 | 0.301 | 5.08 | 5.26 | inactive |
| ZSCAN20 | 1 | -0.638 | -1.52 | 3.02 | inactive |
| ZSCAN20 | 2 | -0.636 | -1.51 | 5.32 | inactive |
| ZSCAN20 | 3 | -0.136 | 2.01 | 4.18 | inactive |
| ASIC4 | 1 | -0.445 | -0.161 | 5.23 | inactive |
| ASIC4 | 2 | 5.8 | 43.8 | 19.6 | active |
| ASIC4 | 3 | 0.319 | 5.21 | 6.41 | inactive |
| NDUFB9 | 1 | 0.0418 | 3.26 | 6.62 | inactive |
| NDUFB9 | 2 | -0.645 | -1.57 | 4.85 | inactive |
| NDUFB9 | 3 | -0.844 | -2.97 | 2.22 | inactive |
| MIS18A | 1 | 0.11 | 3.74 | 4.94 | inactive |
| MIS18A | 2 | 0.792 | 8.54 | 7.87 | inactive |
| MIS18A | 3 | 3.04 | 24.4 | 11.2 | inactive |
| CBFA2T2 | 1 | -0.956 | -3.76 | 2.28 | inactive |
| CBFA2T2 | 2 | 0.995 | 9.97 | 10.4 | inactive |
| CBFA2T2 | 3 | 2.51 | 20.6 | 12 | inactive |
| MRPL42 | 1 | -0.742 | -2.25 | 2.99 | inactive |
| MRPL42 | 2 | 0.842 | 8.89 | 7.91 | inactive |
| MRPL42 | 3 | 0.567 | 6.95 | 5.45 | inactive |
| AKAP8L | 1 | -0.317 | 0.739 | 5.82 | inactive |
| AKAP8L | 2 | 0.0818 | 3.54 | 6.48 | inactive |
| AKAP8L | 3 | -0.542 | -0.847 | 3.41 | inactive |
| DERA | 1 | 0.527 | 6.68 | 6.36 | inactive |
| DERA | 2 | 0.22 | 4.52 | 8 | inactive |
| DERA | 3 | -0.385 | 0.26 | 4.34 | inactive |
| PIGS | 1 | 1.19 | 11.4 | 8.65 | inactive |
| PIGS | 2 | -1.13 | -5 | 1.84 | inactive |
| PIGS | 3 | 0.195 | 4.34 | 3.09 | inactive |
| PCBD1 | 1 | 2.32 | 19.3 | 12.5 | inactive |
| PCBD1 | 2 | -0.487 | -0.462 | 4.56 | inactive |
| PCBD1 | 3 | 0.36 | 5.5 | 5.08 | inactive |
| GOLGA6L7 | 1 | -1.11 | -4.82 | 1.78 | inactive |
| GOLGA6L7 | 2 | -0.00313 | 2.95 | 4 | inactive |
| GOLGA6L7 | 3 | -0.655 | -1.64 | 3.01 | inactive |
| GOLGA6L7 | 4 | -0.941 | -3.65 | 1.96 | inactive |
| GOLGA6L7 | 5 | -0.817 | -2.78 | 2.49 | inactive |
| GOLGA6L7 | 6 | 3.9 | 30.4 | 13.6 | inactive |
| GSTA5 | 1 | -0.104 | 2.23 | 7.02 | inactive |
| GSTA5 | 2 | -0.368 | 0.375 | 4.84 | inactive |
| GSTA5 | 3 | -0.949 | -3.71 | 3.14 | inactive |
| SLC2A12 | 1 | 2.8 | 22.7 | 13 | inactive |
| SLC2A12 | 2 | -0.204 | 1.53 | 6.69 | inactive |
| SLC2A12 | 3 | -0.737 | -2.22 | 3.77 | inactive |
| CLCF1 | 1 | 0.174 | 4.19 | 5.99 | inactive |
| CLCF1 | 2 | -0.462 | -0.28 | 3.82 | inactive |
| CLCF1 | 3 | 0.0221 | 3.12 | 4.39 | inactive |
| NALCN | 1 | 1.96 | 16.7 | 11.4 | inactive |
| NALCN | 2 | -0.00463 | 2.93 | 5.77 | inactive |
| NALCN | 3 | -0.0479 | 2.63 | 5.4 | inactive |
| QRICH1 | 1 | 6.95 | 51.9 | 26 | active |
| QRICH1 | 2 | 0.18 | 4.23 | 8.29 | inactive |
| QRICH1 | 3 | -0.678 | -1.81 | 3.79 | inactive |
| AASDHPPT | 1 | -0.0827 | 2.39 | 5.09 | inactive |
| AASDHPPT | 2 | 1.81 | 15.7 | 12.1 | inactive |
| AASDHPPT | 3 | 0.378 | 5.63 | 6.34 | inactive |
| RAB3C | 1 | 0.268 | 4.85 | 6.31 | inactive |
| RAB3C | 2 | 0.998 | 9.99 | 9.25 | inactive |
| RAB3C | 3 | 0.66 | 7.61 | 9.21 | inactive |
